The other results are listed elsewhere or left out.
Target: OsWRKY34 (Oryza sativa, UniProt Q0JBA9 1-250)
Experiment: protein-binding microarray (RPBM); PBS, 2% BSA, 51.3 ng/ul salmon testes DNA, 50 uM zinc acetate, 200 nM TF, 25 C, 1 h; high values mean tight binding
Conditions: protein: recombinant; tags: N-terminal polyhistidine and DsRed monomer fusion (pET32a); label: CyDye5-dUTP incorporated in the synthesized complementary strand; 3' TTTTT single-stranded linker to array surface; dsDNA, one strand shown
Summary of the method: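 Polyhistidine-tagged DsRed fusions of transcription factors, joined at the N-terminus, were expressed in E. coli BL21-CodonPlus and isolated on Ni–NTA. They were incubated at 200 nM for 1 h at 25 °C on a custom Agilent array, double-stranded and BSA-blocked, in PBS with 2% BSA, salmon testes DNA and 50 µM zinc acetate. The binding signal is per-feature fluorescence intensity (arbitrary units) read on an Axon 4000B scanner after washing.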

By UniProt entry, the sequences of proteins in these tests, tags left out.
UniProt Q0JBA9, entry or part of it: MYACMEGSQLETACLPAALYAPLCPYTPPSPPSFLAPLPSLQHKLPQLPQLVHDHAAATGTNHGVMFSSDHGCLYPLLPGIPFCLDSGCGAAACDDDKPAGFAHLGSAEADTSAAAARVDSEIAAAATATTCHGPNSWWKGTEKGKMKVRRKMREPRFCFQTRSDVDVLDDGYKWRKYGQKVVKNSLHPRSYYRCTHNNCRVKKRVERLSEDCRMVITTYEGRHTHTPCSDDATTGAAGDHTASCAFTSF

Sequence	binding signal
CAGCTCGCGCCGCCGCCGCCGTCGCCGTCACTCTCCTCAGCGGAGTCACCTAGTGCAG	9080 fluorescence intensity (a.u.)
TGCGCAAAAGGGATCATGGGGCAGGGGCAATGATGAAGCTCGGAGTCACCTAGTGCAG	9190 fluorescence intensity (a.u.)
CAACTCCTACTCGCGCCACTCCGCCACTGGCGCCTGGCTACGGAGTCACCTAGTGCAG	8100 fluorescence intensity (a.u.)
ATGTGGGTCCCACGGGTTTTATTATTTTTCCGGGTCGAATCGGAGTCACCTAGTGCAG	8160 fluorescence intensity (a.u.)
CAGTTCATTCGGAGGATGGATTAGCTCCAGTCATGTATTCCGGAGTCACCTAGTGCAG	8240 fluorescence intensity (a.u.)
TGTGTCATGCCTTATATATTGTTGAGAATAAGTCTGTTTTCGGAGTCACCTAGTGCAG	10000 fluorescence intensity (a.u.)
ACGATCGCTGCCTCGCTCTCGTCCACTCACAAATCGATCTCGGAGTCACCTAGTGCAG	8990 fluorescence intensity (a.u.)
ACATTCTCTTATACCCATCACAATCATTTGCTCAATAGGGCGGAGTCACCTAGTGCAG	8620 fluorescence intensity (a.u.)
CCACACACACACCAAGCCGCGCGCGCGCGTGGTCCATACCCGGAGTCACCTAGTGCAG	8750 fluorescence intensity (a.u.)
ATCTGCTTCACGGACTGCGCCTCTGTTTTACACTACCGACCGGAGTCACCTAGTGCAG	9580 fluorescence intensity (a.u.)
TGCTGCTGCTGTTGCTGCTGATAGTGGTGGTGGTGGGTGGCGGAGTCACCTAGTGCAG	8340 fluorescence intensity (a.u.)
TGGGCTTGGTGGAGGTGGCGGGTTTGGAGGCGGAGGTGGCCGGAGTCACCTAGTGCAG	14400 fluorescence intensity (a.u.)
CCACCGTCGCCCGCTCCGGCCGCCACCCACCACGCTCCGCCGGAGTCACCTAGTGCAG	8910 fluorescence intensity (a.u.)
AGTTAAACCGGCACTTCAACCATTTTTCCCGGTCCAATTACGGAGTCACCTAGTGCAG	10100 fluorescence intensity (a.u.)
CGCCTAGTCGCCTACTGCCCATTTGCCACCCAACCCTACTCGGAGTCACCTAGTGCAG	11100 fluorescence intensity (a.u.)
GCTGTTATTGGTTGCTCCTCGCGGTCTCCTTTTTTGGTGACGGAGTCACCTAGTGCAG	10800 fluorescence intensity (a.u.)
TGTTACTGATTTTTCTCGTCGTTTTCCTTTTTCTTTCTTTCGGAGTCACCTAGTGCAG	11900 fluorescence intensity (a.u.)
TCCACGCACAAACCACGTAAGCACGCACCACCTCGCGCGGCGGAGTCACCTAGTGCAG	8770 fluorescence intensity (a.u.)
ATTAATATTTTATACGTGACTTGTCTTTTTAATTTTTTTCCGGAGTCACCTAGTGCAG	8520 fluorescence intensity (a.u.)
GTTTTTCTATTAGTGAATACACCACTTCCATTCCTTTTTCCGGAGTCACCTAGTGCAG	8710 fluorescence intensity (a.u.)
AACCTACTCTTATTTACCTTGTATATTGTCTCTCCCTTTTCGGAGTCACCTAGTGCAG	10400 fluorescence intensity (a.u.)

Sequence	binding signal
TCTTGTCTTCATCTACTCCTTTTGTACCAGAAAAAATAATCGGAGTCACCTAGTGCAG	8140 fluorescence intensity (a.u.)
TATGTGTTTTTTGCCGATTAAATTATTACGGGATATATAACGGAGTCACCTAGTGCAG	9680 fluorescence intensity (a.u.)
TGTATGCTTTTTGCGCCATATCCCACCTTTTTTCCGTTTCCGGAGTCACCTAGTGCAG	9540 fluorescence intensity (a.u.)
TAATTCCTGTGTTTGCAATCCTCTGTTTTATACTTACATTCGGAGTCACCTAGTGCAG	11400 fluorescence intensity (a.u.)
ATCTGCATTTGTTTGTTCCTGTCACCTTTGTACCATCCAACGGAGTCACCTAGTGCAG	13100 fluorescence intensity (a.u.)
ATTAATTGGTATAAGTCATCTCTGGCTCCTTGCAAAAATACGGAGTCACCTAGTGCAG	8970 fluorescence intensity (a.u.)
CGGTTTGGACTCCGACTTGTGCTAACAGCCTCCCATTTCTCGGAGTCACCTAGTGCAG	8510 fluorescence intensity (a.u.)
GAGGCGAGTGGGAGGGTGGGAGGGAGGGATGAAAGAGATGCGGAGTCACCTAGTGCAG	15800 fluorescence intensity (a.u.)
ACTCGGAATCGGTCGGAAAAAATTCCGGAAAGTTTGTCGGCGGAGTCACCTAGTGCAG	15100 fluorescence intensity (a.u.)
GGGTTTTAGAGCTCGCCTCTTCCGCTCTCTCTCTCTCTCTCGGAGTCACCTAGTGCAG	8600 fluorescence intensity (a.u.)
AGCGATCTTACGTGTGTAGTGCTGTGTGTTTATGAGCGTCCGGAGTCACCTAGTGCAG	9720 fluorescence intensity (a.u.)
GTGAGTTCGACACCCCTCGCGCTTGTATTCTCTGCCGAAACGGAGTCACCTAGTGCAG	10300 fluorescence intensity (a.u.)
TTTTAATTACTGATCTTCTTACAATTGCTTTTATGCTGTCCGGAGTCACCTAGTGCAG	9820 fluorescence intensity (a.u.)
GTGCCTCTGGCGGTTTGTCGCGCTCGCCATGGCTGCCATTCGGAGTCACCTAGTGCAG	9030 fluorescence intensity (a.u.)
GCCGCGTCGCCCTCTCCGATCTCTCCCCGCCTCCGCCATGCGGAGTCACCTAGTGCAG	8080 fluorescence intensity (a.u.)
GCAACGGCGAGGGAGGGAAGGTGGTCCGGTGGTGGGGTGACGGAGTCACCTAGTGCAG	10500 fluorescence intensity (a.u.)
CAAACACACCCTTAGACCTGATTACTTACAGCTTGTACAACGGAGTCACCTAGTGCAG	8190 fluorescence intensity (a.u.)
CTGTGTTTTGCAATTCTCTGTTTTATACTTACATTCCTATCGGAGTCACCTAGTGCAG	15700 fluorescence intensity (a.u.)
CCCTGGTTTTGACGGTGGTTAGGTGGGGCCAGAATTTTTACGGAGTCACCTAGTGCAG	9700 fluorescence intensity (a.u.)
AACACGCTTAAGACACATATTGAAACATGTCCCTATCACGCGGAGTCACCTAGTGCAG	8900 fluorescence intensity (a.u.)
GTCGCCTCACTTCCCTAGCCGCTAGGGCCGCCGCCACCGCCGGAGTCACCTAGTGCAG	9050 fluorescence intensity (a.u.)

Part of the list above, in CSV form:
Sequence,binding signal
TGTATGCTTTTTGCGCCATATCCCACCTTTTTTCCGTTTCCGGAGTCACCTAGTGCAG,9540 fluorescence intensity (a.u.)
TAATTCCTGTGTTTGCAATCCTCTGTTTTATACTTACATTCGGAGTCACCTAGTGCAG,11400 fluorescence intensity (a.u.)
ATCTGCATTTGTTTGTTCCTGTCACCTTTGTACCATCCAACGGAGTCACCTAGTGCAG,13100 fluorescence intensity (a.u.)
ACTCGGAATCGGTCGGAAAAAATTCCGGAAAGTTTGTCGGCGGAGTCACCTAGTGCAG,15100 fluorescence intensity (a.u.)
GTGCCTCTGGCGGTTTGTCGCGCTCGCCATGGCTGCCATTCGGAGTCACCTAGTGCAG,9030 fluorescence intensity (a.u.)
AACACGCTTAAGACACATATTGAAACATGTCCCTATCACGCGGAGTCACCTAGTGCAG,8900 fluorescence intensity (a.u.)
GTCGCCTCACTTCCCTAGCCGCTAGGGCCGCCGCCACCGCCGGAGTCACCTAGTGCAG,9050 fluorescence intensity (a.u.)
